Part of at least one peptide drawing is inferred or uncertain, most often the ends. Square brackets hold non-standard residues; d marks the D form. Peptide text beside a SMILES is read from it.
Legend:
[1] = tested on: A2780cp20 cells; experiment: Internalization of Alexa647-labeled peptides (confocal microscopy); format: cell-based, human
Experimental: FIGS. 2A-C: BIDEN-AP acts as an EphB4 agonist. (FIG. 2A) BIDEN-AP induced phosphorylation of EphB4 and the associated […] (Crk1). After 16 h serum starvation, A2780cp20 cells were incubated with EFNB2-Fc (20 nM), TNYL-RAW (SEQ ID NO: 12) (50 μM), or BIDEN-AP (50 μM) for 30 min or 2 h. The uncropped blots were available at Supplemental FIG. 11. (FIG. 2B) BIDEN-AP inhibited A2780cp20 cell invasion compared to untreated control (CTL). A modified Boyden transwell chamber coated with human defined matrigel was used. Experiments were performed in triplicate. Data are presented as mean±SD. ***p<0.001. (FIG. 2C) Alexa647-BIDEN-AP was internalized via receptor-mediated endocytosis. A2780cp20 cells were incubated at 37° C. with Alexa647-BIDEN-AP (0.05 μM), Alexa647-TNYL-RAW (SEQ ID NO: 12) (0.05 μM), or Alexa647-BIDEN-AP (0.05 μM) plus unlabeled TNYL-RAW (SEQ ID NO: 12) (5 μM, blocking). Alexa647-BIDEN-AP but not Alexa647-TNYL-RAW (SEQ ID NO: 12) was internalized into the A2780cp20 cells.
A2780cp20 cells were incubated at 4° C. with Alexa647-BIDEN-AP (0.05 μM).
Immunofluorescence imaging. A2780cp20 ovarian cancer cells (5×10^5 cells/well) were plated in 4-well chamber slides and treated with Alexa647-labeled BIDEN-AP (50 μM) for 1 h or 2 h. […]

[2] = tested on: A2780cp20-Luc tumors; experiment: Orthotopic A2780cp20-Luc ovarian cancer model; format: in vivo, mouse
From the text: Female nude mice were intraperitoneally (i.p.) inoculated with […] tumor cells. […] Tumor growth was monitored by bioluminescence imaging (IVIS). […] CTL, untreated control.
Orthotopic ovarian cancer models. […] For all therapeutic experiments, groups of the mice (n=8-10) were inoculated intraperitoneally with A2780cp20-Luc cells. […] Untreated mice were used as a control.
Immunoblotting, immunoprecipitation, and co-immunoprecipitation. For immunoblotting, lysates from cultured cells were prepared using modified radioimmunoprecipitation assay (RIPA) buffer (50 mM Tris-HCl [pH 7.4], 150 mM NaCl, 1% Triton, 0.5% deoxycholate) plus 25 μg/mL leupeptin, 10 μg/mL aprotinin, 2 mM EDTA, and 1 mM sodium orthovanadate. To prepare lysates of snap-frozen tissue from mice, approximately 30-mm^3 cuts of tissue were disrupted with a tissue homogenizer and subjected to centrifugation at 13,000 rpm for 30 min in modified RIPA buffer. The protein concentrations were determined by using a BCA Protein Assay Reagent kit (Pierce Biotechnology, Rockford, IL). Lysates were loaded and separated by 8% sodium dodecyl sulfate (SDS)-polyacrylamide gel electrophoresis (PAGE). Proteins were transferred to a nitrocellulose membrane by semidry electrophoresis (Bio-Rad Laboratories, Hercules, CA) overnight, blocked with 3% BSA for 1 h, and then incubated at 4° C. with primary antibody overnight. After washing with a mixture of tris-buffered saline and Tween 20 (TBST) solutions, the membranes were incubated with horseradish peroxidase (HRP)-conjugated horse anti-mouse IgG (1:2000, GE Healthcare, Amersham Place, UK) for 2 h. HRP was visualized by an enhanced chemoluminescence detection kit (Pierce). […] Densitometry was performed using ImageJ software. For immunoprecipitation and co-immunoprecipitation, cells were subjected to lysis in non-denaturing NP40 cell lysis buffer (Cell Signaling Technology, Boston, MA). The extracts were incubated with A/G-conjugated antibody at 4° C. for 2 h, and for immunoprecipitation the beads were washed twice with RIPA buffer, once with 0.5 m LiCl in 0.1 m Tris (pH 8.0), and once with PBS. Reactions were boiled in sample buffer, and proteins were then subjected to 10% SDS-PAGE and immunoblotting.
Immunofluorescence analysis of CD31 was performed on 5-μm-thick fresh-frozen tissue samples. After deblocking with acetone, acetone-chloroform (1:1), and acetone for 5 min, non-specific binding was blocked with 4% fish gelatin (Biotium Inc, Hayward, CA) in PBS for 30 min.
Immunohistochemistry (IHC) analysis.

In the case of CC[C@H](C)[C@H](NC(=O)[C@@H]1CCCN1C(=O)CNC(=O)[C@H](CC(N)=O)NC(=O)[C@@H]1CCCN1C(=O)[C@H](CO)NC(=O)[C@H](Cc1ccccc1)NC(=O)[C@H](CC(C)C)NC(=O)[C@@H](Cc1ccc(O)cc1)NC(=O)[C@H](CC(N)=O)NC(=O)[C@@H](N)[C@@H](C)O)C(=O)N[C@@H](C)C(=O)N[C@@H](CCCNC(=N)N)C(=O)N[C@@H](C)C(=O)N[C@@H](Cc1c[nH]c2ccccc12)C(N)=O [BIDEN-AP] (H-TN[dY]LFSPNGPIARAW-NH2; C-terminus assumed), the “cellular internalization at 4° C.” value [1] is reported as “no cellular internalization was observed”, the bioluminescence signal intensity ([2]; day 28, 13 mg/kg/injection i.p., 10 doses) is reported as “significantly reduced the bioluminescence signal intensity” and the “tumor growth in the peritoneum (tumor weight, number of metastatic nodules)” value ([2]; day 31, 13 mg/kg/injection i.p., 10 doses) is reported as “significantly reduced tumor growth”. For the same molecule, the “microvessel density (MVD)” value ([2]; excised tumors, CD31) was “decreased microvessel density” and the “expression of EMT factors vimentin, Twist, Snail1” value ([2]; mRNA level, vimentin also protein level) was “significantly reduced expression of vimentin, Twist, and Snail1”.

— patent US12448425B2, “Therapeutic peptides” (Board of Regents, The University of Texas System, priority 2019, dated 2025)
